Reference: US20250269047A1
These are yes or no findings as the source states them, for the method shown. Binding can be weak; no strength is given.

Sequences of proteins named here, by UniProt entry; tags and fusion partners are left off. A change or cut given only in a name is not applied to a line headed by its entry.
UniProt Q5ZPR3: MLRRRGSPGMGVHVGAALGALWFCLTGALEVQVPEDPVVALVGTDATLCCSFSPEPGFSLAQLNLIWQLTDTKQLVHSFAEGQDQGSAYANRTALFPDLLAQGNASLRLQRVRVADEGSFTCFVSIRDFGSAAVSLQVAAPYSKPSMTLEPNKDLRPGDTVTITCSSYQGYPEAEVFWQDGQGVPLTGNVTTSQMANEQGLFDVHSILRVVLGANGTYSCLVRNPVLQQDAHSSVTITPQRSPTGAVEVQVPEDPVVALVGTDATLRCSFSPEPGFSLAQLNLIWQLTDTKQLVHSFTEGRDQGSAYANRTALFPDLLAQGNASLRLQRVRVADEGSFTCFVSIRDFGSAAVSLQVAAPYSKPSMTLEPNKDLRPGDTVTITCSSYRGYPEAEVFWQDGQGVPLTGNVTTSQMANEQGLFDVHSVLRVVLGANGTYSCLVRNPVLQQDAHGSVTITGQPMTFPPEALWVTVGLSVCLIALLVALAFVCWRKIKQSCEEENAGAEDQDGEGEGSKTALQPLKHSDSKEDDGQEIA

Key:
[1] = molecular target: T1, recombinant human B7-H3-his extracellular domain protein (UniProtKB-Q5ZPR3, 1 aa-461 aa) (human) (UniProt Q5ZPR3); assay: ELISA, plate coated with recombinant human B7-H3-his ECD (20 ng/ml), hybridoma culture supernatant, HRP goat anti-mouse IgG (Fcγ)
[2] = molecular target: recombinant monkey B7-H3-his extracellular domain protein (XP-005560056.1, 1 aa-465 aa) (monkey); assay: ELISA, coated antigen 0.2 µg/ml, one antibody concentration
[3] = molecular target: T1, recombinant human B7-H3-his extracellular domain protein; assay: as above
[4] = molecular target: T1, recombinant human B7-H3-his extracellular domain protein; assay: BLI (Octet QKe), antibody on AHC biosensor

Binder | binding [1] | binding [2] | binding [3] | binding [4]
445 (antibody, V domains shown) VH: EVQLQQSGPELVRPGVSVKISCKGSGYSFTDYAIHWVKQSHAMSLEWIGIINTYYGNTNYNQKFKGKATMTVDKSSSTAYMELARLTSADSAIYYCARSTTTATFYWYFDVWGAGTTVSVSS VL: DIVLTQSPVTLSVTPGDSVSLSCRASQSINNNLHWYQQKPHESPRLLIKYASQSISGIPSRFSGSGSGTDFTLSFNSVETEDFGMYFCQQSHSWPYTFGGGTKLEIK | binds | – | – | –
485 (antibody, V domains shown) VH: EVQLQQSGPELVKPGASVKISCKTSGYTFTEYIMHWVKQSHGKSLEWIGGINPNNGGTTYNQKFKGKATLTVDKSSSTAYMELRSLTSEDSAVYYCARKGKDYFDWYFDVWGAGTTVTVSS VL: QIVLTQSPTIMSASPGEKVTMTCSASSSVSYMHWYQQKSGTSPKRWIYDTSKLASGVPARFSGSGSGTSYSLTISSMEAEDAATYYCQQWSSNPLTFGAGTKLELK | binds | – | – | –
ch9B11 (antibody, human IgG1, V domains shown) VH: EVQLQQSGPELVRPGVSVKISCKGSGYSFTDYAIHWVKQSHAMSLEWIGIINTYYGNTNYNQKFKGKATMTVDKSSSTAYMELARLTSADSAIYYCARSTTTATFYWYFDVWGAGTTVSVSS VL: DIVLTQSPVTLSVTPGDSVSLSCRASQSINNNLHWYQQKPHESPRLLIKYASQSISGIPSRFSGSGSGTDFTLSFNSVETEDFGMYFCQQSHSWPYTFGGGTKLEIK | – | binds | binds | binds
ch10B4 (antibody, human IgG1, V domains shown) VH: EVQLQQSGPELVKPGASVKISCKTSGYTFTEYIMHWVKQSHGKSLEWIGGINPNNGGTTYNQKFKGKATLTVDKSSSTAYMELRSLTSEDSAVYYCARKGKDYFDWYFDVWGAGTTVTVSS VL: QIVLTQSPTIMSASPGEKVTMTCSASSSVSYMHWYQQKSGTSPKRWIYDTSKLASGVPARFSGSGSGTSYSLTISSMEAEDAATYYCQQWSSNPLTFGAGTKLELK | – | – | binds | binds
